From PubChem BioAssay AID463183 (Sanford-Burnham Center for Chemical Genomics, 2010)
The list shows a part of the results. Further columns of the screen follow, without active or inactive calls. The list favours compounds with an active or inconclusive main result.

Assay: blockers of oleate-driven lipid droplets in liver cells – imaging, AML12 mouse hepatocytes, single concentration, high-content, confirmation (AID 463183);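 also: cells counted after overnight compound exposure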
Conditions: BODIPY lipid droplet imaging, measured here: cell count, cytotoxicity, at 5.2 µM, droplets induced with 100 µM oleic acid

Row | Structure (SMILES) | cell count [cells]
1 | CCCOc1ccccc1C(=O)N(Cc1ccc(C)o1)C1CCS(=O)(=O)C1 (stereo not drawn) | 1610
2 | COc1ccc(CCNC(=O)CCc2cn(C)c3ccccc23)c(OC)c1OC | 1550
3 | COc1ccc(C(=O)OC(C)C(=O)NC(C)CCc2ccccc2)cc1[N+](=O)[O-] (stereo not drawn) | 1670
4 | COc1ccc(CC(=O)Nc2oc(-c3ccccc3)c(-c3ccccc3)c2C#N)cc1OC | 1530
5 | COc1ccc(CCNC(=O)c2ccc(CNc3nc(=S)[nH]c4ccccc34)cc2)cc1OC | 1630
6 | c1cc[n+](CCC[n+]2ccccc2)cc1 | 1560
7 | COc1ccc(CC(=O)Nn2c(-c3ccccc3)nc3ccccc3c2=O)cc1 | 1640
8 | O=C1/C(=C/c2ccc([N+](=O)[O-])cc2)CCC1C1CCCC1 (stereo not drawn) | 1660
9 | CCOc1ccccc1NC(=O)CCCNC(=O)Cn1cnc2sc(C)c(C)c2c1=O | 1610
10 | CCc1ccc(C(=O)CSc2nc3cc(S(=O)(=O)N4CCOCC4)ccc3n2CC)cc1 | 1640
11 | COc1ccccc1/C=N\Nc1ccccc1[N+](=O)[O-] | 1630
12 | Oc1c(/C=C/C=C/C=Nc2ccccc2)sc(=S)n1Cc1ccccc1 | 1600
13 | O=C(CNc1cc(S(=O)(=O)N2CCCC2)ccc1OCC(F)(F)F)Nc1cccc(C(F)(F)F)c1 | 1490
14 | Cc1ccc(CNC(=O)CCCc2c[nH]c3ccccc23)cc1 | 1600
15 | CCOc1ccc2nc(-c3ccccc3)nc(SCC(=O)Nc3ncc(C)s3)c2c1 | 1550
16 | CC(C)C(=O)N(Nc1nc2ccccc2s1)C(=O)C(C)C | 1600
17 | CN(C)c1ccc(N=Nc2ccccc2Br)cc1 | 1670
18 | COC(=O)/C(=C\c1ccc2c(c1)c1ccccc1n2C)NC(=O)c1ccccc1 | 1540
19 | COc1ccc(CNC(=O)C2CCCN(C(=O)Nc3ccccc3OC)C2)cc1 (stereo not drawn) | 1640
20 | COc1ccc(C)cc1S(=O)(=O)N(CC(=O)Nc1cc([N+](=O)[O-])ccc1C)c1ccc(C)c(C)c1 | 1540
21 | Cc1coc2cc3oc(=O)cc(C)c3cc12 | 1590
22 | COC(=O)c1ccc2c(c1)NC(=O)C(N(CC(C)C)CC(C)C)S2 (stereo not drawn) | 1610
23 | CSc1c(CC(=O)Nc2ccccc2C(F)(F)F)n(Cc2ccccc2)c2ccccc12 | 1500

Three entries already listed, ordered by number of heavy atoms, descending.
Row | Structure (SMILES) | cell count [cells]
4 | COc1ccc(CC(=O)Nc2oc(-c3ccccc3)c(-c3ccccc3)c2C#N)cc1OC | 1530
18 | COC(=O)/C(=C\c1ccc2c(c1)c1ccccc1n2C)NC(=O)c1ccccc1 | 1540
11 | COc1ccccc1/C=N\Nc1ccccc1[N+](=O)[O-] | 1630
